{
  "source": "paper doi:10.1101/613612",
  "target": "T1, PIP2a-2xStrep-FLAG (Arabidopsis thaliana) (UniProt P43286)",
  "T1 sequence": "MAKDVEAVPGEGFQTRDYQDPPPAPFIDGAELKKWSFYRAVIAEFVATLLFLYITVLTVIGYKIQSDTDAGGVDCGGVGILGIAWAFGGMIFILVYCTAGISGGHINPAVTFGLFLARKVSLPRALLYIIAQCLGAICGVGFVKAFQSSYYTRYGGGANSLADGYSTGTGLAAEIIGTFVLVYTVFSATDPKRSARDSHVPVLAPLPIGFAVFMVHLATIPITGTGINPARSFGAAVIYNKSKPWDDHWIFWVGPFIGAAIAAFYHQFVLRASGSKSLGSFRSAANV",
  "test": "affinity purification with mass spectrometry",
  "note": "Results are given in words; binding and its absence hold for the method and conditions named. Binding seen in cells or lysates may run through a third protein. A yes stands for co-enrichment or nearness to the bait. Other partners may have been found. A no says only that the protein was not detected with the bait. Sequences can lack the tags named with a protein.",
  "data": [
    {"substance": "NbPP2C6 (N. benthamiana (endogenous in leaves)) (enzyme)", "values": [
      {"measurement": "binding", "result": "no binding"}
    ]}
  ]
}
